No constants are given. Whether binding was seen depends on the method and setting. Some binding calls cover weakened binding; strength is not graded here.

Protein sequences, listed by entry. Tags and fused reporters are not part of them. Residues count along the entry.
UniProt Q02223, residues 1-54: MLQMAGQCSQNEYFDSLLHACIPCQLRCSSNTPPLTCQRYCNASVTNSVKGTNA

The target in test [1] is BCMA (species not stated) (UniProt Q02223). Put plainly: phage display; assay not described.
For test [2] the target is unchanged. In words: affinity maturation of PI-61; assay not described.

B1: anti-BCMA antibody PI-61 (antibody, V domains shown)
VH: QVQLQESGGGVVQPGRSLRLSCAASGFTFSSYGMHWVRQAPGKGLEWVAVISYDGSNKYYADSVKGRFTISRDNSKNTLYLQMNSLRAEDTAVYYCGGSGYALHDDYYGLDVWGQGTLVTVSS
VL: QSALTQPASVSGSPGQSITISCTGTSSDVGGYNYVSWYQQHPGKAPKLMIYDVSNRPSGVSNRFSGSKSGNTASLTISGLQAEDEADYYCSSYTSSSTLYVFGSGTKVTVL
For the molecule B1, the binding entry in test [1] is listed as “binds”.

B2: anti-BCMA antibody H3-15 (antibody, V domains shown)
VH: QVQLQGSGGGVVQPGRSLRLSCAASGFTVSSYGMHWVRQAPGKGLEWVAVISYDDANKYYADSVKGRFTISRDSSKNTLYLQMNSLRAEDTAVYYCGGSGYAYDGDYYGLDVWGQGTLVTVSS
VL: QSALTQPASVSGSPGQSITISCTGTSSDVGGYNYVSWYQQHPGKAPKLMIYEVSNRLGGVSNRFSGSKFGNTASLTISGLQAEDEADYYCSSYTSSSALYVFGSGTKVTVL
With B2, the binding result in test [2] is reported as “binds”.

B3: anti-BCMA antibody H3-13 (antibody, V domains shown)
VH: QVQLQESGGGVVQPGRSLRLSCAASGFTFSSYGMHWVRQAPGKGLEWVAVISYDDAHKYYADSVKGRFTISRDNSKNTLYLQMNSLRAEDTAVYYCGGSGYALHDQYKPVDVWGQGTLVTVSS
VL: QSALTQPASVSGSPGQSITISCTGTSSDVGGYNYVSWYQQHPGKAPKLMIYEVSNRLRGVSNRFSGSKFGNTASLTISGLQAEDEADYYCSSYTSSSTLYVFGSGTKVTVL
On to B3, for which the binding entry in test [2] was “binds”.

B4: anti-BCMA antibody H3-14 (antibody, V domains shown)
VH: QVQLQGSGGGVVQPGRSLRLSCAASGFTFSSYGMHWVRQAPGKGLEWVAVISYDDAHKYYADSVKGRFTISRDNSKNTLYLQMNSLRAEDTAVYYCGGSGYALHDQYKPVDVWGQGTLVTVSS
VL: QSALTQPASVSGSPGQSITISCTGTSSDVGGYNYVSWYQQHPGKAPKLMIYEVSNRLSGVSNRFSGSKFGNTASLTISGLQAEDEADYYCSSYTSSSALYVFGSGTKVTVL
For B4, the binding result in test [2] is “binds”.

B5: anti-BCMA antibody H3-12 (antibody, V domains shown)
VH: QAQLQSSEGGVVQPGRSLRLSCAASGFTFSSYGMHWVRQAPGKGLEWVAVISYDESNKYYADSVKGRFTISRDNSKNTLYLQMNSLRAEDTAVYYCGGSGYEVDQDYYGLDVWGQGTLVTVSS
VL: QSALTQPASVSGSPGQSITISCTGTSSDVGGYNYVSWYQQHPGKAPKLMIYEVSNRLRGVSNRFSGSKFGNTASLTISGLQAEDEADYYCSSYTSSSTLYVFGSGTKVTVL
On to B5, for which the binding entry in test [2] is recorded as “binds”.

The record behind these values is patent publication US20230128499A1.
